Experimental data as given in publication PMC11794946.
No constants are given. Whether binding was seen depends on the method and setting. Binding seen in cells or lysates may run through a third protein. These calls come from enrichment with a bait or labelling near it, and not all partners need be listed.

By UniProt entry, the sequences of proteins in these tests, tags left out.
UniProt Q9BXC0: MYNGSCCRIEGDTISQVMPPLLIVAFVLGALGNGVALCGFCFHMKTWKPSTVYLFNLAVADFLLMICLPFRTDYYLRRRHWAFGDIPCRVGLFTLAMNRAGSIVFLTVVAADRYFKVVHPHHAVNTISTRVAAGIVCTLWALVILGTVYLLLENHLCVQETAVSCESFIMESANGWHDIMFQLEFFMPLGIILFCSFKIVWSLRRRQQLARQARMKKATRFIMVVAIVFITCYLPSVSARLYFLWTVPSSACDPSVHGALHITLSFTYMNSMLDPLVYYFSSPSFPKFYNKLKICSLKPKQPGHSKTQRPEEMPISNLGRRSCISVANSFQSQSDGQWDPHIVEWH
UniProt Q9C086: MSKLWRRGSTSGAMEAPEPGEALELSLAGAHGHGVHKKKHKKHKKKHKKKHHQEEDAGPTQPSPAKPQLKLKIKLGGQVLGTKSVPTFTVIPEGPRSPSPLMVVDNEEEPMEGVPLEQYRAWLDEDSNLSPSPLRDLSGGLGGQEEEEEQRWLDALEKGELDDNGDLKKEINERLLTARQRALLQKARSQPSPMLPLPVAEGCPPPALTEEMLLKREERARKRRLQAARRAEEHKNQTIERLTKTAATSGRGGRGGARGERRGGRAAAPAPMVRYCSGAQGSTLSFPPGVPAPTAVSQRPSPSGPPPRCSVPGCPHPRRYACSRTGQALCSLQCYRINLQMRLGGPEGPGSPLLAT
UniProt Q96L73: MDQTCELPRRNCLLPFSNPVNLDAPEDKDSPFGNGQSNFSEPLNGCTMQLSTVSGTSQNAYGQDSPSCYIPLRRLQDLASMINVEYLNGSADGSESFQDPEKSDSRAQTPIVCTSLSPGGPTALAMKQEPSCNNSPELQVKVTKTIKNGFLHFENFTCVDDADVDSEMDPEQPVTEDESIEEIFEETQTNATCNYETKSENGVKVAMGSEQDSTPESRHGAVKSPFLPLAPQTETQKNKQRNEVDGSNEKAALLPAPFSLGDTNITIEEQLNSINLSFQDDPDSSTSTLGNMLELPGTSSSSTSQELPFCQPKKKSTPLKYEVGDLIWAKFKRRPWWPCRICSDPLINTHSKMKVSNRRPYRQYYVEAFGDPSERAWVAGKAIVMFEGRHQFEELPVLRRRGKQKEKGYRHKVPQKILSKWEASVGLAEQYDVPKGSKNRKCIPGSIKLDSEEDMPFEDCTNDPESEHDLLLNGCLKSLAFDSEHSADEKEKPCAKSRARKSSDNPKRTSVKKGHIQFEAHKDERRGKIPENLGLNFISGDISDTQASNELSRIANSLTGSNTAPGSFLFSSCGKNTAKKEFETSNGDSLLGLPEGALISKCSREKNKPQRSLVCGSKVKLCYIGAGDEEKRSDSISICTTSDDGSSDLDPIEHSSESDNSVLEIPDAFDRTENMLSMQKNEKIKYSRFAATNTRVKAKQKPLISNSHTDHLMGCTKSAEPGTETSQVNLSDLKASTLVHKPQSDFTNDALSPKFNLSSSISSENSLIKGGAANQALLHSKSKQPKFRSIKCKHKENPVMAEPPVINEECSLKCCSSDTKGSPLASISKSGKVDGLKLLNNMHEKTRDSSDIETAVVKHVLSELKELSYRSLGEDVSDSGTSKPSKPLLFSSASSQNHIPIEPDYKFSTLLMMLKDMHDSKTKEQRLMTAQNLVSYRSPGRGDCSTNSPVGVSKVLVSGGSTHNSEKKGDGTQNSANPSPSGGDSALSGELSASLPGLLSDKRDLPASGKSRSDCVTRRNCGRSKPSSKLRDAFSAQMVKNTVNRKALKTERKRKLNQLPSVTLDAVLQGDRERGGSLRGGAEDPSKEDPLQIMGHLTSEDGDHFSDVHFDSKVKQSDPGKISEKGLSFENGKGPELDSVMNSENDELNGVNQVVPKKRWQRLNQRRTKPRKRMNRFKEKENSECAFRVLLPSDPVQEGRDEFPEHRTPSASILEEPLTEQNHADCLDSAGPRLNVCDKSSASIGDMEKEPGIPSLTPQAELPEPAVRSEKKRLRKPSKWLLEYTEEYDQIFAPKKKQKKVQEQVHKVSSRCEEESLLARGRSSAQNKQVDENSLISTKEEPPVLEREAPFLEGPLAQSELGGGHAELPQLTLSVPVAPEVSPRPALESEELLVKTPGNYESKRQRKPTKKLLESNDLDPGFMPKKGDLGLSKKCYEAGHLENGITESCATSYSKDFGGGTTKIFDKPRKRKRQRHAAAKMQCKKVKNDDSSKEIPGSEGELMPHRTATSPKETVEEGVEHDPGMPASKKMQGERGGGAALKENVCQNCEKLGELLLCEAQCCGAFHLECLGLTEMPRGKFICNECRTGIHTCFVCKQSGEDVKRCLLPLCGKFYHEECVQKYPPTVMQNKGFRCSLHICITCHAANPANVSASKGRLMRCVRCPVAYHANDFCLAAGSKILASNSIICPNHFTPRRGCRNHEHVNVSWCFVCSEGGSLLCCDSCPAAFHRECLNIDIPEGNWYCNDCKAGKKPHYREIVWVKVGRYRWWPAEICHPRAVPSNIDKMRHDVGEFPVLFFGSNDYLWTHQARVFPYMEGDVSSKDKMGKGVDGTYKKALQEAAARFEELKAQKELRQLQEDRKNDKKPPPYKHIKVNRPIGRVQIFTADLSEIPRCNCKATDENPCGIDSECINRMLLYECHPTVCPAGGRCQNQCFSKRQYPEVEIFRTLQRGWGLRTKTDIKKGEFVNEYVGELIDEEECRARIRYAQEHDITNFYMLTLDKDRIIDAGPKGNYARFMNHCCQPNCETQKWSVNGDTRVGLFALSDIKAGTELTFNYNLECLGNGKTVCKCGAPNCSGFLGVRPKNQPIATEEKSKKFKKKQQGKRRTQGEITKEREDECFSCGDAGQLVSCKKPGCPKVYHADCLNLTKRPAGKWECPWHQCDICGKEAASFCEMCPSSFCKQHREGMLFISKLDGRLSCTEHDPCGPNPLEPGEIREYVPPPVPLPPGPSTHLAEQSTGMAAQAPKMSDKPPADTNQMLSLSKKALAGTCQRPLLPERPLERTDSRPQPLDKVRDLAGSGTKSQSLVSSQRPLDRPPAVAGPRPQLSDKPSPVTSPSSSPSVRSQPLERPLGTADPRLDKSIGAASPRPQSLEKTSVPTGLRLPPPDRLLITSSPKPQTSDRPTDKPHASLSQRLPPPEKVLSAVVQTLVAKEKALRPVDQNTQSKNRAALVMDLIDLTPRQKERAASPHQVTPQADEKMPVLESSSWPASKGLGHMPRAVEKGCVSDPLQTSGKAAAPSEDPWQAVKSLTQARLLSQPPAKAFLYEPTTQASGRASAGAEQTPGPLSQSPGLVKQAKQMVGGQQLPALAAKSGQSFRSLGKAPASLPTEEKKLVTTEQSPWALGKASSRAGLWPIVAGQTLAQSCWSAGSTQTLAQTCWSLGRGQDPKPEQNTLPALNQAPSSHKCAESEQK
UniProt Q92922: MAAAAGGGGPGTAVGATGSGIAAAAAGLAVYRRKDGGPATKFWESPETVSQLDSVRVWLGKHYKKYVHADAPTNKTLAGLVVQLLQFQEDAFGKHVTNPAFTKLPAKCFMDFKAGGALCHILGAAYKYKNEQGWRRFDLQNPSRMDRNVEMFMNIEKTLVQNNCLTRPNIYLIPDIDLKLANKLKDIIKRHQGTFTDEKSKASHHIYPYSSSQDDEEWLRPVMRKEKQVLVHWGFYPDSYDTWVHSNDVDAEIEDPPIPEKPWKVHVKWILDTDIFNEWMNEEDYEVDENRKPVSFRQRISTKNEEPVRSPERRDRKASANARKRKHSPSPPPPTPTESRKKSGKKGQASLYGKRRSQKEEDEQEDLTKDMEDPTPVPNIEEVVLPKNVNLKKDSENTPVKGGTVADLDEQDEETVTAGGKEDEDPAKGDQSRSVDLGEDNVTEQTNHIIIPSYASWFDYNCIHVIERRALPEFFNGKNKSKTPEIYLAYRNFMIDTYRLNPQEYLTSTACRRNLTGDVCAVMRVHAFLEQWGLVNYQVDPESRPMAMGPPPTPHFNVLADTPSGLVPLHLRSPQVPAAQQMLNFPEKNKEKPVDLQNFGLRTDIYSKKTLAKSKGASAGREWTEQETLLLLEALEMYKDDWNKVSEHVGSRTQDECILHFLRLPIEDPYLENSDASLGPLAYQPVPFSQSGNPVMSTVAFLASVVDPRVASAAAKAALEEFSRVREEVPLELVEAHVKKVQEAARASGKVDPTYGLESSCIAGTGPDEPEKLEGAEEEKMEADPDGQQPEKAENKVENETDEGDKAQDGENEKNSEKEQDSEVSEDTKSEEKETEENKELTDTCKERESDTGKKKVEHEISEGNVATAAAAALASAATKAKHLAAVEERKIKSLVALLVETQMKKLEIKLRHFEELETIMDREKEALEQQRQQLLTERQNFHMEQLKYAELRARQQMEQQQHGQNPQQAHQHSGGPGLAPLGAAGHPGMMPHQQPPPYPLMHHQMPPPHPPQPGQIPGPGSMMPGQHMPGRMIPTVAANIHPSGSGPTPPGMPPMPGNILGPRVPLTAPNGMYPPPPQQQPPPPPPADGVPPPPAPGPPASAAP

The substances below were run against HCAR1-Bio-ID fusion protein (HA-tagged HCAR1-BirA) (human) (UniProt Q9BXC0) (assay: proximity labelling; BioID2: stable HeLa cells expressing HCAR1-BioID2-HA, biotin 50 uM with 10 mM lactate or PBS; nuclei isolated, lysed in non-denaturing buffer, streptavidin beads, LC-MS/MS; enrichment against cells with BirA alone).

| Substance | binding |
| --- | --- |
| INO80b (from UniProt Q9C086 1-356) | binds |
| NSD1 (from UniProt Q96L73 1-2696) (enzyme) | binds |
| SMARCC1 (from UniProt Q92922 1-1105) | binds |
